Data published in publication PMC4175184, “Structure and function of cohesin’s Scc3/SA regulatory subunit” (Febs Letters, 2014).
Positions count from the first letter of the chain named. Names may count otherwise. These are yes or no findings as the source states them, for the method shown. Some binding calls cover weakened binding; strength is not graded here. For part of these data: Tags and fused reporters may be left off the sequences shown.

How the values were obtained:
[1] = biological target: T1, S. cerevisiae Wapl (S. cerevisiae) (UniProt Q99359); experiment: SEC; 15 μM of each pure protein incubated at 4 °C for 2–3 h in 150 μl TAP buffer, Superdex 200 10/300; fractions by SDS–PAGE and Coomassie staining; both purified
T1 sequence: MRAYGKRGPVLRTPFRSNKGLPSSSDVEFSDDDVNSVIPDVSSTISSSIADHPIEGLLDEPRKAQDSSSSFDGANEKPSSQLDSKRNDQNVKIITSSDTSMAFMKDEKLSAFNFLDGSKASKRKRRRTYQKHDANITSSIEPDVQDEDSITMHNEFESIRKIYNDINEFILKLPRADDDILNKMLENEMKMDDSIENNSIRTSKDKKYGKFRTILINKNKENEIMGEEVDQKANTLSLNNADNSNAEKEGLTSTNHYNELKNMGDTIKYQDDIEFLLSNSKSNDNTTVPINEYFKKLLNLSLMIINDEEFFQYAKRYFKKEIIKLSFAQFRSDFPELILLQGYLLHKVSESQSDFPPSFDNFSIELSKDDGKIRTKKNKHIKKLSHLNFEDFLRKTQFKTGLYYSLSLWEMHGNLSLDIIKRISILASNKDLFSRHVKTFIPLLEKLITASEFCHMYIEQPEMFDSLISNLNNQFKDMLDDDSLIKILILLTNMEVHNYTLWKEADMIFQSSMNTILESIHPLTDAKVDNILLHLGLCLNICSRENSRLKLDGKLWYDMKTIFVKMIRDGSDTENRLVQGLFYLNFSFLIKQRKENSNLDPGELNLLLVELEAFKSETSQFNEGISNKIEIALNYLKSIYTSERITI

[2] = biological target: T2, S. cerevisiae Scc3, two differently tagged versions (S. cerevisiae), P40541; experiment: pull-down; two differently tagged Sc Scc3 proteins, pure proteins mixed in an equimolar ratio; 5 μM of each in TAP buffer, resin 2 h at 4 °C (Fig. 2-fig^1B); both purified; conditions: remark: other sources report otherwise
T2 chain: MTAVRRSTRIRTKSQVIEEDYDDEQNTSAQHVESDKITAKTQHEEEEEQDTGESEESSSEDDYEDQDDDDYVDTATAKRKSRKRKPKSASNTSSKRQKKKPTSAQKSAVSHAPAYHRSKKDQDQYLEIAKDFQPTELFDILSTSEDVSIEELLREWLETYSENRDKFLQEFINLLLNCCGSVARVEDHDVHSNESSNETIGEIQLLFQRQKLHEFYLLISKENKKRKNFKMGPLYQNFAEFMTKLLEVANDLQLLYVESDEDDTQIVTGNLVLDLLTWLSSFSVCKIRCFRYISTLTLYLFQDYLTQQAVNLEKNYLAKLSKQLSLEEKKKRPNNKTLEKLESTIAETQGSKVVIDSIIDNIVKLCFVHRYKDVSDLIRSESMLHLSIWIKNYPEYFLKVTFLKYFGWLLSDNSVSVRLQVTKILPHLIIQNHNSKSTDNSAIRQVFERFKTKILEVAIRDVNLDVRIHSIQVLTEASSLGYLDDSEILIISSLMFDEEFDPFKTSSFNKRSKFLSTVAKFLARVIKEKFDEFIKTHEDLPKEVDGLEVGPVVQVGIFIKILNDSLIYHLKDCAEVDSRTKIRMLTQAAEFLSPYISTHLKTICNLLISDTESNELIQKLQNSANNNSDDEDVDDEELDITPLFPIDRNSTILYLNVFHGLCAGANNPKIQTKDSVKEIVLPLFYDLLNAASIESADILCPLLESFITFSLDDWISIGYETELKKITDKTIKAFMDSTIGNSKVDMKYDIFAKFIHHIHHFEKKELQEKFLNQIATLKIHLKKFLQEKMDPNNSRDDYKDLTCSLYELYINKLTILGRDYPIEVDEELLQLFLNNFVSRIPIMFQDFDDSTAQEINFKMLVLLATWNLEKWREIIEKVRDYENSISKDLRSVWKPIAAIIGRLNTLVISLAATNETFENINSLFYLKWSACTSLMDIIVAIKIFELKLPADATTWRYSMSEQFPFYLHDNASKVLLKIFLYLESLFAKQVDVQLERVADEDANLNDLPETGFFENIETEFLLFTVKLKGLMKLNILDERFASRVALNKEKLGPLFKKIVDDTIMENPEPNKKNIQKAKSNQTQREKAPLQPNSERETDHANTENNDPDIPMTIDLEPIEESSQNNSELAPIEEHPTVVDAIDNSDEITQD

[3] = biological target: S. cerevisiae Scc1 (259–451), two differently tagged versions (S. cerevisiae) (UniProt Q12158); experiment: pull-down; two differently tagged versions of Scc1 (259–451) in the presence of intact Scc3 protein; 5 μM of each in TAP buffer, resin 2 h at 4 °C (Fig. 2-fig^1C); both purified

B1: S. cerevisiae Scc3 E202K (protein, UniProt P40541 1-1150)
chain: T2 chain with E202K
With B1 the binding [1] was “binds”.

B2: S. cerevisiae Scc3, two differently tagged versions, P40541 1-1150 (protein)
chain: T2 chain
For B2, the binding [2] was “no binding (tested: 5 μM of each purified protein)”.

B3: S. cerevisiae Scc1 (259–451), two differently tagged versions (domain or fragment, UniProt Q12158 259-451, looked up)
chain: DDDNSVEQGRRLGESIMSEEPTDFGFDLDIEKEAPAGNIDTITDAMTESQPKQTGTRRNSKLLNTKSIQIDEETENSESIASSNTYKEERSNNLLTPQPTNFTTKRLWSEITESMSYLPDPILKNFLSYESLKKRKIHNGREGSIEEPELNVSLNLTDDVISNAGTNDNSFNELTDNMSDFVPIDAGLNEAPF
notes: source: E. coli BL21(DE3) RIPL, purified (Talon beads, Superdex 200)
In the case of B3, the binding [3] is reported as “no binding (tested: 5 μM of each purified protein)”.
